Source: patent publication US20240026009A1
Results are given in words; binding and its absence hold for the method and conditions named. Some results given as binding are weak or reduced against the parent protein; the word gives no strength.

The chains behind the UniProt entries cited, without tags or fusion partners. Where a name states a change or a piece, a line headed by the entry shows the natural chain unless it says otherwise.
UniProt P17931: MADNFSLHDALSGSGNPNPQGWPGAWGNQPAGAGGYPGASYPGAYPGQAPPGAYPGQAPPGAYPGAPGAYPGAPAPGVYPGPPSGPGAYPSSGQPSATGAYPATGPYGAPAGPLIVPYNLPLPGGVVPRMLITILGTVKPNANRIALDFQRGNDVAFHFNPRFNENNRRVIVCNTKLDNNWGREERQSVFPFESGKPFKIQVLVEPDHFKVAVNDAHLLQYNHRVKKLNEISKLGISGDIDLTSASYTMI

Molecular target: PE labeled Gal-3 (Gal-3-PE) (human) (UniProt P17931)
Assay: blockade of Gal-3-PE binding to OVCAR3 cells by purified antibody, number of Gal-3-PE-bound cells (Mirrorball)

Binder | binding
mAb 20F08 (antibody, V domains shown) VH: EVQLVESGGGLVKPGGSLRLSCAASGFIFSNYNINWVRQAPGKGLEWVSCVSRSNYTYYTDSVKGRFTISRDNAKKSLYLQMNSLRAEDTAVYYCARDCGTYGVFDYWGQGTLVTVSS VL: ETTVTQSPASLSMAIGEKVTIRCITSTDIDDDMNWYQQKPGEPPKLLISEGNILRPGVPSRFSSSGYGTDFVFAIENMLSEDVADYYCLQSDNLPYTFGGGTKLELK | binds
mAb 12H07 (antibody, V domains shown) VH: EVQLVESGGGLVKPGGSLRLSCAASGFIFSNYNINWVRQAPGKGLEWVSCVSRSNYTYYTDSVKGRFTISRDNAKKSLYLQMNSLRAEDTAVYYCARDCGTYGVFDYWGQGTLVTVSS VL: ETTVTQSPASLSMAIGEKVTIRCITSTDIDDDMNWYQQKPGEPPKLLISEGNILRPGVPSRFSSSGYGTDFVFAIENMLSEDVADYYCLQSDNLPYTFGGGTKLELK | binds
mAb 39F02 (antibody, V domains shown) VH: EVQLLESGGGLVQPGGSLRLSCAASGFTLSNYAMSWVRQAPGKGLEWVSAISGSGGGTYNADSVKGRFTISRDNSKNTLYLQMNSLRAEDTAVYYCAKEAWISYFDYWGQGTLVTVSS VL: DIVMSQSPSSLAVSVGEKVTLSCKSSQSLLYGDDQKNYLAWYQQKPGQSPKLLLYWASTWESGVPDRFTGSGSGTDFTLTISSVKAADLAVYYCQQYYSYPWTFGGGTKLEIK | binds
